# Laboratory results taken from patent EP2864333B1, “ETODOLAC DERIVATIVES AS HCV NS5B POLYMERASE INHIBITORS” (priority 2012, dated 2014).
# Amino acid sequences for entries named in this document (tags omitted). Residues count along the entry.
# UniProt P26663, 2420-2989: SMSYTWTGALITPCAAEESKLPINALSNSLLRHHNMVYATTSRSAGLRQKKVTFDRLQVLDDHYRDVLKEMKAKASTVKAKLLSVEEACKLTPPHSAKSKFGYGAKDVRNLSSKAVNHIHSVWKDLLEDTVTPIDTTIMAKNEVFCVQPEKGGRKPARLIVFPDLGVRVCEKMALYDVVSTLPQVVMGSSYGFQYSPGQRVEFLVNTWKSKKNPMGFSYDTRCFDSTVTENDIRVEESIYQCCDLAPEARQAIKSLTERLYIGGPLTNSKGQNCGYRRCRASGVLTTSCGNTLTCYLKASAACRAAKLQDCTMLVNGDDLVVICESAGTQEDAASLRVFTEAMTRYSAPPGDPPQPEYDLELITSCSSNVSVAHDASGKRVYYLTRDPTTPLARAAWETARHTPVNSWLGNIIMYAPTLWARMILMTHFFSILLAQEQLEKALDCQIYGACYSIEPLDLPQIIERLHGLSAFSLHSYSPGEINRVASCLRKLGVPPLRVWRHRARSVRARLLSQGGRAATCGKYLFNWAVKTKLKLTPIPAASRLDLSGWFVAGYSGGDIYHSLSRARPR
# Some results were stated once for a whole list of compounds, not compound by compound.
# Biological target: T1, HCV NS5B RdRp (NS5BCdelta21) (Hepatitis C virus genotype 1b, UniProt P26663)
# T1 construct: 500 ng of NS5BCdelta21; made in house; host or cells: Escherichia coli DH5alpha
# Assay: HCV NS5B RNA-dependent RNA polymerase (RdRp) assay, poly rA/U12 primer-dependent elongation
# Format: biochemical
# Conditions: comparison in words with Wedelolactone (IC50 36.0)
# Method: The RdRp activity of NS5B was evaluated by the standard primer-dependent elongation reactions employing poly rA/U12 template-primers (TP). Reaction mixtures containing 20 mM Tris-HCl (pH 7.0), 100 mM NaCl, 100 mM Na-glutamate, 0.5 mM DTT, 0.01% BSA, 0.01% Tween-20, 5% glycerol, 20 U/ml of RNasin, 0.5 microM of poly rA/U12, 25 microM UTP, 2-5 microCi [alpha-32P]UTP, 500 ng of NS5BCdelta21 and 0.5 mM MnCl2 with or without inhibitors in a total volume of 25 microliters were incubated for 1 h at 30°C. Reactions were quenched by the addition of ice cold 5% (v/v) trichloroacetic acid (TCA) containing 0.5 mM pyrophosphate (PPi), the denatured polymeric RNA products were transferred to GF-B filters and the amount of radioactive UMP incorporated into RNA products was quantified on a liquid scintillation counter (Packard). The concentrations of the compounds inhibiting 50% of NS5B RdRp activity (IC50) were calculated from the inhibition curves as a function of inhibitor concentration. Nsp12 activity was similarly evaluated except that incubations were carried out at 25°C for optimal enzymatic activity.
# The ability of the compounds to inhibit HCV NS5B RdRp activity was investigated in vitro by polyrA-U12 extension assay as described in experimental section by Kaushik-Basu N, et al.. The compounds SGK 224-230, 313 and SGK 238- 244, 315 were reconstituted in DMSO as 50 mM stocks, and serially diluted in DMSO to obtain working stocks.
# Preliminary screening was carried out at 100 µM to identify a wider range of compounds. […] NS5B RdRp activity in the absence of the inhibitor was taken as 100 percent after subtraction of residual background activity. The concentration of DMSO in all reactions was kept constant at 5%. […] Curves were fitted to data points using nonlinear regression analysis and IC50 values were interpolated from the resulting curves using GraphPad Prism 3.03 software.
row,SMILES,efficacy / IC50 compared with reference standard Wedelolactone
1,"C=CCNC(=S)NNC(=O)CC1(CC)OCCc2c1[nH]c1c(CC)cccc21 (stereo not drawn) [SGK 229, 1-[2-(1,8-Diethyl-1,3,4,9-tetrahydropyrano[3,4-b]indole-1-yl)acetyl]-4-allyl thiosemicarbazide]",lower than Wedelolactone
2,"CCc1cccc2c3c([nH]c12)C(CC)(CC(=O)NN=Cc1cccc(F)c1)OCC3 (stereo not drawn) [SGK 202, 2-(1,8-Diethyl-1,3,4,9-tetrahydropyrano[3,4-b]indole-1-yl) acetic acid [(3-fluorophenyl)methylene] hydrazide]",equal efficiacy
3,"CCc1cccc2c3c([nH]c12)C(CC)(CC(=O)NNC(=S)NC)OCC3 (stereo not drawn) [SGK 224, 1-[2-(1,8-diethyl-1,3,4,9-tetrahydropyrano[3,4-b]indol-1-yl)acetyl]-4-methyl thiosemicarbazide]",lower than Wedelolactone
